Laboratory results: publication PMC12450650
Results are given in words; binding and its absence hold for the method and conditions named. For some of these results: Binding seen in cells or lysates may run through a third protein. For some of these results: Where a sequence is shown, tags or fusion partners need not be part of it. Some results given as binding are weak or reduced against the parent protein; the word gives no strength.

The chains behind the UniProt entries cited, without tags or fusion partners.
UniProt Q62318: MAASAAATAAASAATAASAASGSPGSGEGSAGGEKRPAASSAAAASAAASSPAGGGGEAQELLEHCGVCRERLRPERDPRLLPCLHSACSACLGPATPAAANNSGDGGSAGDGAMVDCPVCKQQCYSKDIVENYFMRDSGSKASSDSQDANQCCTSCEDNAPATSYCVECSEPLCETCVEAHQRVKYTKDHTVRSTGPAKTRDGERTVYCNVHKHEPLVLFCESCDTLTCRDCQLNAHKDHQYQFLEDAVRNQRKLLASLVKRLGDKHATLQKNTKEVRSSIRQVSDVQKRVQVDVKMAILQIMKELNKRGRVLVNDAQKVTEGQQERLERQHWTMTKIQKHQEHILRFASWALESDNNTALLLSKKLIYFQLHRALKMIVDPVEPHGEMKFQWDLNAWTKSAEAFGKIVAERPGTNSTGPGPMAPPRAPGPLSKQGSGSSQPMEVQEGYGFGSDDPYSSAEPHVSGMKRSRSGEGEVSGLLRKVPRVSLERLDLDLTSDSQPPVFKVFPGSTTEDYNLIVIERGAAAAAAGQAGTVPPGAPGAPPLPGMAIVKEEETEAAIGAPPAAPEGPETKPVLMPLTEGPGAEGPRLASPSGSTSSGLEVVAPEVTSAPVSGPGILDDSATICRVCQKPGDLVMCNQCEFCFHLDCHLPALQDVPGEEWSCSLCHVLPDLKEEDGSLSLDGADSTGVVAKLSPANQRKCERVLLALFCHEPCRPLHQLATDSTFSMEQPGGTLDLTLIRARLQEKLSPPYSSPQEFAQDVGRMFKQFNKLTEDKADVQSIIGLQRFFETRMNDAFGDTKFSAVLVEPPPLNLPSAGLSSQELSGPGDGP
UniProt Q15797: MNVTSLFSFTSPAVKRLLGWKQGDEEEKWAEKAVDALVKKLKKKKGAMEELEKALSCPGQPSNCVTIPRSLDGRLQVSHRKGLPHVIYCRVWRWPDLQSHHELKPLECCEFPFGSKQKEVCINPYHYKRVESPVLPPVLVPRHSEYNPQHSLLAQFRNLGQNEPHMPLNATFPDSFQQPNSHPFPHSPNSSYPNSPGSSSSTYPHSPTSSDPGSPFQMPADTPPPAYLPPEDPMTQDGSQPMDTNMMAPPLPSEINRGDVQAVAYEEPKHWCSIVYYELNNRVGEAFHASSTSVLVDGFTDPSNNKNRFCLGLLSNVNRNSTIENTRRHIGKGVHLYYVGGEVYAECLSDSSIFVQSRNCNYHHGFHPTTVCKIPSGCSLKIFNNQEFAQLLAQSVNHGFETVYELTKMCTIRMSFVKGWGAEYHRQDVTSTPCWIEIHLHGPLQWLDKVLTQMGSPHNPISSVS
UniProt Q13485: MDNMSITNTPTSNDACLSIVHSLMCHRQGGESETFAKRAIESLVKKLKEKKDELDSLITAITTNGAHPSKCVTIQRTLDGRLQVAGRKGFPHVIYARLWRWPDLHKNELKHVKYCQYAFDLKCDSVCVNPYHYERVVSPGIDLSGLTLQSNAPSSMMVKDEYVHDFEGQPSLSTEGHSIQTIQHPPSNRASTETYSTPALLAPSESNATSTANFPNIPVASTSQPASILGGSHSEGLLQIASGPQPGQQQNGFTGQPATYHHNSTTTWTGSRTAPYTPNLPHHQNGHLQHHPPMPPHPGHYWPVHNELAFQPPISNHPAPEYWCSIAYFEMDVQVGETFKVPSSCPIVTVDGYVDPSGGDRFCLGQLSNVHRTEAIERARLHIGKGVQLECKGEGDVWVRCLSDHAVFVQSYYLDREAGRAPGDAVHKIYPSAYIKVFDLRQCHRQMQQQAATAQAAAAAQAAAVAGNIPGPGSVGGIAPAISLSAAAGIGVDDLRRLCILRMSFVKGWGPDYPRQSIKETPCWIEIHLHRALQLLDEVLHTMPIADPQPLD

Key:
[1] = target: T1, FLAG-tagged KDM1B (mouse) (mouse) (UniProt Q8CIG3); assay: co-IP; HEK293T cells transiently transfected, 36 h; lysis buffer 20 mM Hepes, 100 mM NaCl, 0.5 mM EDTA, 10% glycerol, 0.2% NP-40; FLAG-tagged protein precipitated with anti-FLAG M2 on anti-mouse IgG Dynabeads, 4 h; Western blot
T1 sequence: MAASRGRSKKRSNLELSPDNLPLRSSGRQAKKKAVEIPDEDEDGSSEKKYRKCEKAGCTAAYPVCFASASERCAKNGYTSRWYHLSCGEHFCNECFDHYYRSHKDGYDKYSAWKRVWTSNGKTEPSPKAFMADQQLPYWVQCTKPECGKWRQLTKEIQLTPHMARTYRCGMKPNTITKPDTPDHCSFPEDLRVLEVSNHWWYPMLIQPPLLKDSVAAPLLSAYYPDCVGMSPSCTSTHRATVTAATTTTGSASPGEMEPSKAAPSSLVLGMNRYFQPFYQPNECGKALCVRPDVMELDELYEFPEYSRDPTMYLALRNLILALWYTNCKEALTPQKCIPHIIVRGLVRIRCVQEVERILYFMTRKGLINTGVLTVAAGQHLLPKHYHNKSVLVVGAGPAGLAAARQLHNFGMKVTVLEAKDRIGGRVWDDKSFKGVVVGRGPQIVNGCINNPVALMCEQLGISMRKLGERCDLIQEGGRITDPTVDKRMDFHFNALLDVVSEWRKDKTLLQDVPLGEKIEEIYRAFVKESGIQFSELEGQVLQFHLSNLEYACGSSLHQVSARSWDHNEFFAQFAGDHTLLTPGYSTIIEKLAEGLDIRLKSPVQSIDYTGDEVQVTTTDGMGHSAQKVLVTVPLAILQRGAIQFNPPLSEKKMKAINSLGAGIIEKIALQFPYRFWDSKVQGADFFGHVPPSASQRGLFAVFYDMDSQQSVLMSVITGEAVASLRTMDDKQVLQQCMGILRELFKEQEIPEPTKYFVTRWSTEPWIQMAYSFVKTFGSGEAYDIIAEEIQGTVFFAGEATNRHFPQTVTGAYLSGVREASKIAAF

[2] = target: FLAG-tagged TRIM28 (mouse) (mouse) (UniProt Q62318); assay: as above
[3] = target: T2, FLAG-tagged ZFP57 (mouse) (mouse) (UniProt Q8C6P8); assay: as above
T2 sequence: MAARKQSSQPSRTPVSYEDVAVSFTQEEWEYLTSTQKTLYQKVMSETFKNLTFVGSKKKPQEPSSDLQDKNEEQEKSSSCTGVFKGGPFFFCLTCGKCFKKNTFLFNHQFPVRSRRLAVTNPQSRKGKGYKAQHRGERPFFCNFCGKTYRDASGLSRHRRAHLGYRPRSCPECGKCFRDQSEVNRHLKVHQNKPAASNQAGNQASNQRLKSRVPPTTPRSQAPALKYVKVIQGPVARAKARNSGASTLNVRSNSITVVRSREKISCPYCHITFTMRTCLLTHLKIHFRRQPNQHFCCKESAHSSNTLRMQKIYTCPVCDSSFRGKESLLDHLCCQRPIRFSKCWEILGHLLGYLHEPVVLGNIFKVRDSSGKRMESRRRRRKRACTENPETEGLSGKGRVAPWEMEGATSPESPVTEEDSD

[4] = target: Recombinant human SMAD1 (ab84653; Abcam) (human) (UniProt Q15797); assay: pull-down; recombinant proteins (500 ng each) with anti-SMAD1 antibody (913C1b) on anti-mouse IgG Dynabeads, SMAD1 as bait; PBST, room temperature, 15 min; Western blot; both purified

Row | Substance | binding [1] | binding [2] | binding [3] | binding [4]
1 | Myc-tagged SMAD1 (from UniProt Q15797 1-465) | no binding | no binding | no binding | 
2 | Recombinant human SMAD4 (ab81764; Abcam) (from UniProt Q13485 1-552) |  |  |  | binds
